In publication PMC10252594 (Cancers, 2023):

Tested on: LAPC-4 cells
Test: Total cholesterol in LAPC-4 cells (kit)
Format: cell-based, human
Details: Table S2
Description: A cholesterol quantification kit provided by Sigma-Aldrich (Catalog Number MAK043) was used following the manufacturer’s instructions to determine the concentration of total cholesterol, free cholesterol, and cholesteryl ester in samples. The cholesterol contents were measured in samples from two different protocols. Firstly, in LAPC-4 cells treated (18, 36, and 72 h) or not with RM-581 (2 µM) or atorvastatin (10 µM). Secondly, in tumor, liver, and plasma obtained at the end of the LAPC-4 xenograft experiment (control group and the group treated with RM-581 at 10 mg/kg/PO).

CC(C)c1c(C(=O)Nc2ccccc2)c(-c2ccccc2)c(-c2ccc(F)cc2)n1CC[C@@H](O)C[C@@H](O)CC(=O)O [atorvastatin, reference compound]
Total cholesterol concentration in LAPC-4 cells (18 h, RM-581 2 μM or atorvastatin 10 μM): 59 ± 3.5 | Total cholesterol concentration in LAPC-4 cells (36 h, RM-581 2 μM or atorvastatin 10 μM): 61 ± 0.4 | Total cholesterol concentration in LAPC-4 cells (72 h (first line, control 66 ± 2), RM-581 2 μM or atorvastatin 10 μM): 70 ± 1 | Total cholesterol concentration in LAPC-4 cells (72 h (second line, control 108 ± 6.5), atorvastatin 10 μM): 50 ± 2
